{
  "sequences": {"note": "Sequences of proteins named here, by UniProt entry; tags and fusion partners are left off. A change or cut given only in a name is not applied to a line headed by its entry.", "UniProt O60268": "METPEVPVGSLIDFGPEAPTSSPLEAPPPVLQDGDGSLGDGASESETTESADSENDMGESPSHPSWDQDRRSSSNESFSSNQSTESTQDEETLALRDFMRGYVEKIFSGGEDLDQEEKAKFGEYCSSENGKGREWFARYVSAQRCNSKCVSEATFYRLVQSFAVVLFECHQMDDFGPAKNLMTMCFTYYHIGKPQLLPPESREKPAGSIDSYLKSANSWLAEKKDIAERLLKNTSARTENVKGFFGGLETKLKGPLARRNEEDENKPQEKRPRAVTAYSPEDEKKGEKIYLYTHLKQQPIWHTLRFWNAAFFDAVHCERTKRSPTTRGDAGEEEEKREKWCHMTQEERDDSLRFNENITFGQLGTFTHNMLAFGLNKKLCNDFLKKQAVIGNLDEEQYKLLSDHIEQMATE", "UniProt O60499": "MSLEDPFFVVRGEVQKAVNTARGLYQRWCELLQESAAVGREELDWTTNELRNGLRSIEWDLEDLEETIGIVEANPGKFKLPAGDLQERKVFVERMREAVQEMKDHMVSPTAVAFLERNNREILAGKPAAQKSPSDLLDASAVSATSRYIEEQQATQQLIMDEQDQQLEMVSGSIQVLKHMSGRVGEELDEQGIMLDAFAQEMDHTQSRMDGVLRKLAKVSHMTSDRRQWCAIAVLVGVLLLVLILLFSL", "UniProt O43491, whole entry": "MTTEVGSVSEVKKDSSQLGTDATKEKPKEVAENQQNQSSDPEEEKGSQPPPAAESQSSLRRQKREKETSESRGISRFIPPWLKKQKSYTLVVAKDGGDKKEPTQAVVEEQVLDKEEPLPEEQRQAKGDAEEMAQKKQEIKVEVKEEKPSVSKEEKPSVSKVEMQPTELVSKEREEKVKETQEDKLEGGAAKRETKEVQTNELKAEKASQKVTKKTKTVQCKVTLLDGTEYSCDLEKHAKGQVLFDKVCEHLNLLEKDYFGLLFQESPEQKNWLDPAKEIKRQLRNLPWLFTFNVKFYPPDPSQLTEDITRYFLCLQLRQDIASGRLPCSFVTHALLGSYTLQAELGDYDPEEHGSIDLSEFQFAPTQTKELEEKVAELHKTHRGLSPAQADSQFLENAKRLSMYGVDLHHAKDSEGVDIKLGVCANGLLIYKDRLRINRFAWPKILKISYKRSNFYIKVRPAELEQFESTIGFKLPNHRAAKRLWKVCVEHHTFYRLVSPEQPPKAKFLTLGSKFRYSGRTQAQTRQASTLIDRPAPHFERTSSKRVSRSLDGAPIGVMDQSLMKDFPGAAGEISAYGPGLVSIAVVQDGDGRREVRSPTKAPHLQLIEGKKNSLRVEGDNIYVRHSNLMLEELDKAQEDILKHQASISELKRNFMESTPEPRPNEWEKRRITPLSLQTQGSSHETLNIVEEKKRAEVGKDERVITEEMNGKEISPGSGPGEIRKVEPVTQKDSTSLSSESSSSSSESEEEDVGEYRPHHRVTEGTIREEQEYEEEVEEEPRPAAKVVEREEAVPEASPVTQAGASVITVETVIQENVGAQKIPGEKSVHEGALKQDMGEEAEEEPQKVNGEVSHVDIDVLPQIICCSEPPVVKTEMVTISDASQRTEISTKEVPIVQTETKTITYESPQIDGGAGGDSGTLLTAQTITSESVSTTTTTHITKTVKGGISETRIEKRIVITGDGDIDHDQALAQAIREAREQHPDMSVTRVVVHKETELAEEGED", "UniProt O75344": "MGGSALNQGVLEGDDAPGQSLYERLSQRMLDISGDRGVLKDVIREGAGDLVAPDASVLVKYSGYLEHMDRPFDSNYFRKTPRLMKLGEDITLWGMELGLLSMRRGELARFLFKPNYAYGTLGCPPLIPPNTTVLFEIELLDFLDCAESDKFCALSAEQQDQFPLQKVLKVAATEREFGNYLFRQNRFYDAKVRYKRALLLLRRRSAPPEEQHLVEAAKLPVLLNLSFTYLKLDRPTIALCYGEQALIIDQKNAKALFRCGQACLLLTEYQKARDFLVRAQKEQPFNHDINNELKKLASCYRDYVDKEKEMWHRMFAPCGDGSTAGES", "UniProt O43765": "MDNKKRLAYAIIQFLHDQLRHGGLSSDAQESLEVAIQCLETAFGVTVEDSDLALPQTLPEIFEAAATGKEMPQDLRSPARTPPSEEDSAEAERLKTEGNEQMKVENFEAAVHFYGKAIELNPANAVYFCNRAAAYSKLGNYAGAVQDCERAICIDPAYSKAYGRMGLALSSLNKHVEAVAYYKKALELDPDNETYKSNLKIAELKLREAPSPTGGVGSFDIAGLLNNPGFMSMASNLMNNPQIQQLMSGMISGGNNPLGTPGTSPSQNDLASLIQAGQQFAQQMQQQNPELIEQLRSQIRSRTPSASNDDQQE", "UniProt O60504": "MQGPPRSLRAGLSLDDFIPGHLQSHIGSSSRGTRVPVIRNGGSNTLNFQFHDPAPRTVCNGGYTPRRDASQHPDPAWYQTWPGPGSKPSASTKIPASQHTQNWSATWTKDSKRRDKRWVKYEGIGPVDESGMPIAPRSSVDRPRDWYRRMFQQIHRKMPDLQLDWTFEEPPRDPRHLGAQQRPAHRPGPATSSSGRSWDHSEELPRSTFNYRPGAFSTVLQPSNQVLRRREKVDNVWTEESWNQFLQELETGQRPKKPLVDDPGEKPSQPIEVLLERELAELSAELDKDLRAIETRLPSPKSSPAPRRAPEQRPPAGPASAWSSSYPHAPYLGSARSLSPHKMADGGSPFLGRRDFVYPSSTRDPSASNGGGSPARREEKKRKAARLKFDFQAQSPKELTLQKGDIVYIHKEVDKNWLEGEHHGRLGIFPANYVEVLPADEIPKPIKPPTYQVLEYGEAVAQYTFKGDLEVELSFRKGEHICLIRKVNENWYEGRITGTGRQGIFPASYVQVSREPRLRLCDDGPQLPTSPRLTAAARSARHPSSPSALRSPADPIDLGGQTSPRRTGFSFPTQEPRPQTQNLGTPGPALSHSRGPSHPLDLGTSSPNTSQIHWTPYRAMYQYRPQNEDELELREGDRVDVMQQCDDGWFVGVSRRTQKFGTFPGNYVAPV", "UniProt O60271": "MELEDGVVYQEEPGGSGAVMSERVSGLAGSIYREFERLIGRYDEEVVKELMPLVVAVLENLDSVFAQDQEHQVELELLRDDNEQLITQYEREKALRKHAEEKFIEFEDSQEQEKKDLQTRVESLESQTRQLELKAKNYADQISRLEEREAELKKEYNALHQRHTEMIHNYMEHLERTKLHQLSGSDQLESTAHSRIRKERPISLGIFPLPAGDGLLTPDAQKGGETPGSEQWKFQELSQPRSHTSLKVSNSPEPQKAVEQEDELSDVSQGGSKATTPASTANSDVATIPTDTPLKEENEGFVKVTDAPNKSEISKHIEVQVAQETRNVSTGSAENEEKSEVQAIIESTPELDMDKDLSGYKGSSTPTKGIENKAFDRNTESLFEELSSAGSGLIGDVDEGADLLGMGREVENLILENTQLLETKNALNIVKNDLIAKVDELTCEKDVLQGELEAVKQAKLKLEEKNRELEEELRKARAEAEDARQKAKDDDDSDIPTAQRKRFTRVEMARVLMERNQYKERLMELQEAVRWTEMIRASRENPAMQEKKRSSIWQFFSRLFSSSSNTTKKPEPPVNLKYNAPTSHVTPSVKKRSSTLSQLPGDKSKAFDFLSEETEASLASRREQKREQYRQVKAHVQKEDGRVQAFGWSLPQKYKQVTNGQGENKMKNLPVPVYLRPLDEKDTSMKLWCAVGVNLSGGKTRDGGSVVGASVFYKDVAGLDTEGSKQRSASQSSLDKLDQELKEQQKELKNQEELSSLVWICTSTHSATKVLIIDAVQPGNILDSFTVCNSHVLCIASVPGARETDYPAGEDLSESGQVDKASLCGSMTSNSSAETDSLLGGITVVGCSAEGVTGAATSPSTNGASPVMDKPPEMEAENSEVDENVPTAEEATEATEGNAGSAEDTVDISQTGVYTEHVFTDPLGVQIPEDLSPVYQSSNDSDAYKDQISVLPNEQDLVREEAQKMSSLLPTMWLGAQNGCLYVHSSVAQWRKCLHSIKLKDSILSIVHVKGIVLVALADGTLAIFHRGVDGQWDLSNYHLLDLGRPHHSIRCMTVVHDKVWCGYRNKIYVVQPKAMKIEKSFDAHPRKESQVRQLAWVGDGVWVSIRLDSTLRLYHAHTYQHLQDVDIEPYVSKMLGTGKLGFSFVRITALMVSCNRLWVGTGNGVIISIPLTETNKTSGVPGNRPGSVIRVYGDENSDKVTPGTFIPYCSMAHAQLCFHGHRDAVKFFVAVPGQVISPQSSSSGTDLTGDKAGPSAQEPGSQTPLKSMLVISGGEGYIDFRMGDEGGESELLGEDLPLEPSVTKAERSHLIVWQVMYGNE", "UniProt O43189": "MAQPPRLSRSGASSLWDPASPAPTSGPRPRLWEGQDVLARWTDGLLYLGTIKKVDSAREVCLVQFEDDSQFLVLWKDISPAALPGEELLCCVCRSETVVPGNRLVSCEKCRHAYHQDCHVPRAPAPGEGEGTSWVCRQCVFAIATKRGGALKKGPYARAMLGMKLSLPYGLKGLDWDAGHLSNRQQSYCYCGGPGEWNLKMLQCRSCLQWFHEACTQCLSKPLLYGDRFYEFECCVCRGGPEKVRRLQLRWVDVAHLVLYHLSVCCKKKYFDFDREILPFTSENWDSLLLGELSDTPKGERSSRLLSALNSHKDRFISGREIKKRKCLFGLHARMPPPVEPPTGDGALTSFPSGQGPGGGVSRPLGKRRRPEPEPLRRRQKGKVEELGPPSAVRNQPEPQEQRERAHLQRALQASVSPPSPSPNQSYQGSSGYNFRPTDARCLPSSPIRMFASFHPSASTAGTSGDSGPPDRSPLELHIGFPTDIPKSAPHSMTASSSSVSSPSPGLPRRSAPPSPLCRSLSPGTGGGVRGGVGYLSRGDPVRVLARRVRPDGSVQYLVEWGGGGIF", "UniProt O43257, whole entry": "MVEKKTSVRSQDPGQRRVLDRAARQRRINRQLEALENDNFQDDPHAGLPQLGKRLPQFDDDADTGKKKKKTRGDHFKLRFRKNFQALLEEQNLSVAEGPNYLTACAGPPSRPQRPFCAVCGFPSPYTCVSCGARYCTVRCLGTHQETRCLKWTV", "UniProt O60234, whole entry": "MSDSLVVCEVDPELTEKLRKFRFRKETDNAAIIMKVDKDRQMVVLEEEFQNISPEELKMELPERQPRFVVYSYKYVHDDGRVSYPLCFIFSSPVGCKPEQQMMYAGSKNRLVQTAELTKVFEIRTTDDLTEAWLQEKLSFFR", "UniProt O43715": "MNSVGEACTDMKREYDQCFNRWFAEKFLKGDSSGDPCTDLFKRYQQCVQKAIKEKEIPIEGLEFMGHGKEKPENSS", "UniProt O60732": "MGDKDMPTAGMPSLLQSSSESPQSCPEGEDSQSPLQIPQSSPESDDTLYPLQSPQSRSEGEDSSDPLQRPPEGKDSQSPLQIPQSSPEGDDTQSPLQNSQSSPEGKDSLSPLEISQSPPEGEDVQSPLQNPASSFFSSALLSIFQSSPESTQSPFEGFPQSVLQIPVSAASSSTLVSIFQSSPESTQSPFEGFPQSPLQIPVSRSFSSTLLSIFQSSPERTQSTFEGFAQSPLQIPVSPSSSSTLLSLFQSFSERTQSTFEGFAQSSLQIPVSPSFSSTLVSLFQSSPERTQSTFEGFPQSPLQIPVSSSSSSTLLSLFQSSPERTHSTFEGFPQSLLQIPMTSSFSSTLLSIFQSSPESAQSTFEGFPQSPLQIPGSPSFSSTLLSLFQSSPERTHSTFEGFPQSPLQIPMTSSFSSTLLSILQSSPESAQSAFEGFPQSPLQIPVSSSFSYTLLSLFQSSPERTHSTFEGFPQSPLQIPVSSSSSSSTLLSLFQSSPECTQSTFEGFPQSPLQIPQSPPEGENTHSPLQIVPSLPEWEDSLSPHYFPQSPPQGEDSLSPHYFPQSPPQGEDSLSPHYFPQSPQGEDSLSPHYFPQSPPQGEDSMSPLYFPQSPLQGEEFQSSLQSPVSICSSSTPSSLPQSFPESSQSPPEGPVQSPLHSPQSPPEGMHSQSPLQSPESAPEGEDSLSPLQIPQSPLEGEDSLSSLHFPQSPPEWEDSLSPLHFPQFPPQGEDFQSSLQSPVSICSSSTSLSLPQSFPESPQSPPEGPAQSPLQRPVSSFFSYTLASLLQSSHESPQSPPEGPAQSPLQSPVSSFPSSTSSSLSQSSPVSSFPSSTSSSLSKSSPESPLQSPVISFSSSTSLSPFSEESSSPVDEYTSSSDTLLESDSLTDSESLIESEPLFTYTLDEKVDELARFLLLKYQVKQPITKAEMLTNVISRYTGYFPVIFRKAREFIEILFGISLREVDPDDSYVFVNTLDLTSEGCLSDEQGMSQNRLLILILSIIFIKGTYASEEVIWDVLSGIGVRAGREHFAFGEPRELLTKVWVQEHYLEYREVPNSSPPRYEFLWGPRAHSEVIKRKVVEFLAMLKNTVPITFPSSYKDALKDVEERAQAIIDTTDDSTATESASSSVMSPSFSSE", "UniProt O43678, whole entry": "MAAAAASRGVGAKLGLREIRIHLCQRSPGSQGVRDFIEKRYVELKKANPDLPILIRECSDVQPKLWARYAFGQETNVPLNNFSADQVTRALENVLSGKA"},
  "source": "the supplement of paper PMC12819154",
  "about": "“High-throughput peptide-centric local stability assay extends protein–ligand identification to membrane proteins, tissues and bacteria” (Nature Structural & Molecular Biology, 2025)",
  "note": "Some of the results follow. Most entries show no effect beyond the scatter of the controls.",
  "data": [
    {"compound": "CN[C@@H]1C[C@H]2O[C@@](C)([C@@H]1OC)n1c3ccccc3c3c4c(c5c6ccccc6n2c5c31)C(=O)NC4 [staurosporine]", "test": "log2 fold change of tryptic peptide abundance, ligand vs vehicle (limited proteolysis) (log2 ratio); higher = more trypsin-susceptible (destabilized)", "conditions": "ligand concentration: 20 uM; sample: K562 cleared lysate; digestion: 4 min, 22 C (HT-PELSA RT4min, Orbitrap Astral)", "values": [
      {"target": "ZNF217 (peptide sequence: CKHSHGEAPSVDADPKLPSSK, peptide start residue: 351) (UniProt O75362)", "log2 fold change": -0.872},
      {"target": "TRAF3IP2 (peptide sequence: DCSFPGLPR, peptide start residue: 340) (UniProt O43734)", "log2 fold change": 0.236},
      {"target": "WIPF1 (peptide sequence: GAPPLPPIPR, peptide start residue: 494) (UniProt O43516)", "log2 fold change": 0.188},
      {"target": "KIAA0513 (peptide sequence: FGEYCSSENGK, peptide start residue: 121) (UniProt O60268)", "log2 fold change": -0.366},
      {"target": "STX10 (peptide sequence: EILAGKPAAQK, peptide start residue: 121) (UniProt O60499)", "log2 fold change": 0.114},
      {"target": "EPB41L2 (peptide sequence: EEKPSVSK, peptide start residue: 145) (UniProt O43491)", "log2 fold change": 0.339},
      {"target": "KALRN (peptide sequence: GSSYNPPLPPLK, peptide start residue: 2279) (UniProt O60229)", "log2 fold change": 0.371},
      {"target": "UniProt O75344 (peptide sequence: DYVDKEK, peptide start residue: 117)", "log2 fold change": 0.146},
      {"target": "DKC1 (peptide sequence: ALETLTGALFQRPPLIAAVKR, peptide start residue: 172) (UniProt O60832)", "log2 fold change": -0.176},
      {"target": "SGTA (peptide sequence: LGNYAGAVQDCER, peptide start residue: 138) (UniProt O43765)", "log2 fold change": -0.277},
      {"target": "SORBS3 (peptide sequence: ELTLQKGDIVYIHK, peptide start residue: 398) (UniProt O60504)", "log2 fold change": -0.481},
      {"target": "ARHGAP6 (peptide sequence: MTSLNLATIFGPNLLHK, peptide start residue: 549) (UniProt O43182)", "log2 fold change": -0.11},
      {"target": "IDH3B (peptide sequence: IHTPMEYK, peptide start residue: 115) (UniProt O43837)", "log2 fold change": 0.223},
      {"target": "SPAG9 (peptide sequence: FQELSQPR, peptide start residue: 234) (UniProt O60271)", "log2 fold change": -0.117},
      {"target": "UniProt O43189 (peptide sequence: GKVEELGPPSAVR, peptide start residue: 382)", "log2 fold change": 0.479},
      {"target": "UniProt O43463 (peptide sequence: AFVYINEYR, peptide start residue: 159)", "log2 fold change": -0.611},
      {"target": "ZNHIT1 (peptide sequence: LPQFDDDADTGKK, peptide start residue: 55) (UniProt O43257)", "log2 fold change": 0.485},
      {"target": "GMFG (peptide sequence: LVQTAELTK, peptide start residue: 111) (UniProt O60234)", "log2 fold change": 0.116},
      {"target": "PQBP1 (peptide sequence: SSNADAEEKLDR, peptide start residue: 94) (UniProt O60828)", "log2 fold change": -0.0882},
      {"target": "PEX14 (peptide sequence: RGGDGQINEQVEK, peptide start residue: 351) (UniProt O75381)", "log2 fold change": -0.427},
      {"target": "TRIAP1 (peptide sequence: EKEIPIEGLEFMGHGK, peptide start residue: 54) (UniProt O43715)", "log2 fold change": -0.0869},
      {"target": "WDR62 (peptide sequence: SAQQGSDGLHFVR, peptide start residue: 609) (UniProt O43379)", "log2 fold change": 0.266},
      {"target": "DPM1 (peptide sequence: HATGNYIIIMDADLSHHPK, peptide start residue: 108) (UniProt O60762)", "log2 fold change": 0.347},
      {"target": "NCK2 (peptide sequence: HQAECALNER, peptide start residue: 293) (UniProt O43639)", "log2 fold change": 0.263},
      {"target": "UniProt O15516 (peptide sequence: FSQGQQLVTK, peptide start residue: 703)", "log2 fold change": 0.407},
      {"target": "MAGEC1 (peptide sequence: AGREHFAFGEPR, peptide start residue: 1030) (UniProt O60732)", "log2 fold change": 0.358},
      {"target": "UniProt O60765 (peptide sequence: NLVSLGLPFTK, peptide start residue: 49)", "log2 fold change": -0.0755},
      {"target": "NDUFA2 (peptide sequence: ECSDVQPK, peptide start residue: 57) (UniProt O43678)", "log2 fold change": -0.141}
    ]}
  ]
}
